Results taken from PubChem BioAssay AID1259415 (National Center for Advancing Translational Sciences (NCATS), 2018).
The campaign covered roughly 410,000 compounds. About 18,000 (4.4%) were called active. Inconclusive results, whose numbers are uncertain, are shown with a selection of clear calls. Cut-off read from the data, not from the text of the source: active = activity change below about -60%; inconclusive = no clear call, values can overlap the other calls; inactive = above about -39%.
% is set by controls: 0 for no effect and ±100 for the full control effect.

Test: qHTS Assay for inhibitors of the human cytomegalovirus (HCMV)
Settings: HFF cells, HCMV-luciferase reporter, 72 h; at 57.5 µM; active compounds read low
Summary of the method: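 Steps: HFFs plated, 16 h 37C; compounds added; HCMV-luciferase added to MOI 1 PFU/cell; 72 h 37C; OneGlo reagent, 5 min room temperature; luminescence read, normalized to controls.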
For `Nc1sc(-c2ccccc2)cc1-c1n[nH]c(=S)n1C1CCCCC1`, the activity change, negative = inhibition was inconclusive: -44.4%.
With `O=C1OC(Nc2nc(-c3ccc(F)cc3)cs2)c2ccccc21` (configuration not stated) the activity change, negative = inhibition was active: -91.2%.
In the case of `COc1ccc(-c2nnc(SCC(=O)c3cccs3)o2)cc1`, the activity change, negative = inhibition is reported as inactive: 53.3%.
For `c1ccc(-c2ncc3c(ccc4ccccc43)n2)cc1`, the activity change, negative = inhibition was inconclusive: -40.2%.
In the case of `COc1ccc(C)cc1NC(=O)c1ccc2c(c1)nnn2C1CCCC1`, the activity change, negative = inhibition is reported as inconclusive: -49.9%.
In the case of `CC(C)c1nc(SCC(=O)N2CCOCC2)c2c(=O)n(C)c(=O)n(C)c2n1`, the activity change, negative = inhibition is reported as inconclusive: -52.2%.
In the case of `Cc1ccc(-c2noc(C3CCN(C(=O)Nc4ccc(C#N)cc4)CC3)n2)o1`, the activity change, negative = inhibition is reported as active: -83.7%.
For `Cc1ccc(N(CC(=O)NCc2ccccc2Cl)S(=O)(=O)c2cccs2)cc1`, the activity change, negative = inhibition was inconclusive: -58%.
With `COC(=O)CSC(C(=O)Nc1ccc(C)c(C)c1)c1ccccc1` (configuration not stated) the activity change, negative = inhibition was inactive: 48%.
With `Cc1nnc(SCC(=O)NN2C(=O)NC3(CCCCC3)C2=O)s1` the activity change, negative = inhibition was active: -61.8%.
For `CN(C)C(=O)N1CCC(C(=O)N2CCCC(C(=O)c3ccc(C(C)(C)C)cc3)C2)CC1` (configuration not stated), the activity change, negative = inhibition was inconclusive: -52.7%.
In the case of `S=c1[nH]nc(COc2ccccc2)n1/N=C/c1ccco1`, the activity change, negative = inhibition is reported as inconclusive: -42.5%.
In the case of `C=CCn1c(C)c(C(C)=O)c(N2CCCC2)nc1=S`, the activity change, negative = inhibition is reported as inconclusive: -56.3%.
For `CCOC(=O)N1CCc2c(sc3c2c(=O)n(Cc2ccccc2)c(=O)n3Cc2ccc(C)cc2)C1`, the activity change, negative = inhibition was inconclusive: -42.1%.
In the case of `c1ccc(N=Nc2ccc3cccccc2-3)cc1`, the activity change, negative = inhibition is reported as inconclusive: -42.4%.
In the case of `CN1CCN(C(=O)c2ccc3c(c2)N(C)C(=O)/C(=C/c2cccc(Cl)c2)S3)CC1`, the activity change, negative = inhibition is reported as inconclusive: -50.2%.
With `Cc1noc(C)c1COC(=O)c1cc(=O)[nH]c2ccccc12` the activity change, negative = inhibition was inconclusive: -47.6%.
In the case of `COc1ccccc1NC(=O)CCN1CCCCCC1`, the activity change, negative = inhibition is reported as inconclusive: -50.5%.
For `Cc1cccn2c(=O)cc(COc3cccc(NC(=O)COc4ccccc4)c3)nc12`, the activity change, negative = inhibition was inconclusive: -42%.
With `CCN(CC)S(=O)(=O)c1ccc(OC)c(NC(=O)CSc2cc(Cl)ccc2Cl)c1` the activity change, negative = inhibition was inconclusive: -47.7%.
For `COc1ccc(C(=O)N2CCCC(N3CCN(c4ccccc4F)CC3)C2)c(OC)n1` (configuration not stated), the activity change, negative = inhibition was inactive: -27.5%.
In the case of `COc1ccc(-c2nc(C#N)c(NCc3ccc(F)cc3)o2)cc1OC`, the activity change, negative = inhibition is reported as inactive: 25.4%.
In the case of `CCOC(=S)SCC(=O)Nc1nc(-c2ccccc2)cs1`, the activity change, negative = inhibition is reported as active: -72.8%.
In the case of `Cn1c(=O)n(C)c2cc([N+](=O)[O-])c(N3CCN(C(=O)c4ccccc4Br)CC3)cc21`, the activity change, negative = inhibition is reported as inconclusive: -48.8%.
For `NS(=O)(=O)c1ccc(NC(=O)COC(=O)c2cn(-c3ccccc3)nc2-c2ccccc2)cc1`, the activity change, negative = inhibition was inconclusive: -47.9%.
In the case of `COc1ccc(Nc2cc(C(=O)NCCCN(C)Cc3ccccc3)c3ccccc3n2)cc1`, the activity change, negative = inhibition is reported as active: -93.4%.
In the case of `CC1(C(=O)NCCc2ccccc2)Cc2c(-c3ccc(C(N)=O)cc3)ccnc2O1` (configuration not stated), the activity change, negative = inhibition is reported as inconclusive: -55.9%.
For `COc1ccc(C(=O)Nc2ccccc2-c2nc3ccccc3s2)c(OC)c1`, the activity change, negative = inhibition was inactive: -7.5%.
In the case of `O=c1[nH]ncn1-c1ccccc1`, the activity change, negative = inhibition is reported as inconclusive: -40.2%.
For `Cc1ccc(S(=O)(=O)N2CCC(C(=O)NCc3ccccc3CN3CCCC3)CC2)cc1C`, the activity change, negative = inhibition was inactive: 8.46%.
For `CCOc1cc(C2Sc3ccccc3NC3=C2C(=O)c2ccccc23)ccc1O` (configuration not stated), the activity change, negative = inhibition was inconclusive: -41.9%.
With `CCOC(=O)[C@]12CCC=C1N(Cc1ccc(Cl)cc1Cl)C(=O)[C@H](CC(=O)NCc1ccc(OC)c(OC)c1)C2` the activity change, negative = inhibition was active: -92.6%.
In the case of `Cc1ccc2nc(C3CCCN(C(=S)Nc4cccc(C)c4C)C3)[nH]c2c1` (configuration not stated), the activity change, negative = inhibition is reported as inconclusive: -47.2%.
With `COc1ccc(C(=O)N(C)CC2CCN(CCc3cccc(C(F)(F)F)c3)CC2)cc1C` the activity change, negative = inhibition was inactive: -8.22%.
For `COc1ccccc1/C=C\C=N\n1c(-c2ccc(Cl)cc2)n[nH]c1=S`, the activity change, negative = inhibition was inconclusive: -46.5%.
For `C=CCSc1ncccc1C(=O)NCCc1ccc(Cl)cc1`, the activity change, negative = inhibition was inconclusive: -43.4%.
In the case of `COc1ccccc1N=c1scc(-c2ccc(S(=O)(=O)N3CCCC3)cc2)n1C`, the activity change, negative = inhibition is reported as active: -97.3%.
In the case of `COc1cccc(NC(=O)N2CCN(C(=O)c3nsc4ccccc34)CC2)c1`, the activity change, negative = inhibition is reported as inconclusive: -47.4%.
For `CCOc1cc(S(=O)(=O)NCc2ccccc2)c(OCC)cc1-n1cnnn1`, the activity change, negative = inhibition was inconclusive: -56.9%.
For `COc1ccc(C)cc1-n1nnnc1SCC(=O)c1ccc2c(c1)OCCO2`, the activity change, negative = inhibition was inactive: 7.07%.
In the case of `COc1ccc([N+](=O)[O-])cc1NC(=O)CSc1nccc(C)n1`, the activity change, negative = inhibition is reported as inconclusive: -48%.
In the case of `CC(=O)Nc1ccc(Nc2ncnc3c2c(-c2ccccc2)cn3-c2ccc(C)c(Cl)c2)cc1`, the activity change, negative = inhibition is reported as inactive: -27.6%.
